Data on one molecule can be found in paper PMC4492587.

For this assay, the target named is soluble varicella-zoster virus gE with a C-terminal (His)6 tag (varicella-zoster virus (strain not stated)). As to the kind of experiment: pull-down; THY-1-His or control VZV gE-His bound to Ni-NTA or Talon columns; HCMV-infected cell lysate (PBS with 0.1% NP-40, or 25 mM Tris, 15 mM NaCl and 0.1% NP-40) incubated at 4°C overnight; washed with PBS, eluted with 250 mM imidazole, immunoblotted; only the target purified. A general note: In western blotting, separated proteins are transferred to a membrane and probed.

These are yes or no findings as the source states them, for the method shown. Binding seen in cells or lysates may run through a third protein.

B1: HCMV ICP8 (135 kD), from MRC-5 cells infected with HCMV AD169 (protein, UniProt P17147 1-1235)
chain: MSHEELTALAPVGPAAFLYFSRLNAETQEILATLSLCDRSSSVVIAPLLAGLTVEADFGVSVRTPVLCYDGGVLTKVTSFCPFALYFHHTQGIVAFTEDHGDVHRLCEDARQKYALEAYMPEADRVPTDLAALCAAVGCQASETTVHVVVGNGLKEFLFAGQLIPCVEEATTVRLHGGEAVRVPLYPPTLFNSLQLDAEADEVSLDARSAFVEARGLYVPAVSETLFYYVYTSWCQSLRFSEPRVLIEAALRQFVHDSQQSVKLAPHKRYLGYMSQRLSSLEKDHLMLSDAVVCELAFSFASVFFDSAYQPAESMLFSEWPLVTNATDHRDLIRALTELKLHLSTHVAALVFSANSVLYQHRLVYLQSSARHPSAGGTASQETLLKAIQFTNGLSAACEDVYNDARKVLKFQGAPLKDERYGPQHLALVCGTCPQLVSGFVWYLNRVSVYNTGLSGSSTLTNHLVGCAAGLCEACGGTCCHTCYQTAFVRVRTRLPVVPKQPKKEPCVITVQSRFLNDVDILGSFGRRYNVDAKDGGLDGKGDDGVPGGGAGGGGGRDVSGGPSDGLGGGRGGGGGGDSGGMMGRGGRMLGASVDRTYRLNRILDYCRKMRLIDPVTGEDTFSAHGKSDFVAVFSALNKFVDDEALGFVSEVRLKSSRDEVAGATQAFNLDLNPYAVAFQPLLAYAYFRSVFYVIQNVALITATSYIVDNPLTTNLVSKWMTQHFQSIHGAFSTTSSRKGFLFTKQIKSSKNSDHDRLLDFRLYAQGTYAVVPMEIKLSRLSVPTLIMVRVKNRPIYRAGKGNAGSVFFRRDHVPRRNPAKGCLGFLLYRHHERLFPECGLPCLQFWQKVCSNALPKNVPIGDMGEFNAFVKFLVAVTADYQEHDLLDVAPDCVLSYVESRFHNKFLCYYGFKDYIGSLHGLTTRLTTQNHAQFPHVLGASPRFSSPAEFALHVKGLKTAGVPAPMAATVARESLVRSVFEHRSLVTVPVSVEKYAGINNSKEIYQFGQIGYFSGNGVERSLNVSSMSGQDYRFMRQRYLLATRLADVLIKRSRRENVLFDADLIKNRVMLALDAENLDCDPEVMAVYEILSVREEIPASDDVLFFVDGCEALAASLMDKFAALQEQGVEDFSLENLRRVLDADAQRLTDAAGGEVHDLSALFAPSGVGAASGVGGGGLLLGESVAGNSICFGVPGETGGGCFLVNAGEDEAGGVGGSSGGGGGSGLLPAKRSRL
In the case of B1, the binding entry is recorded as “no binding”.
